Laboratory results reported in patent US10034476B2, “Insecticidal phenyl-or pyridyl-piperdine compounds” (Syngenta Participations AG, priority 2008, dated 2018).
Some results were stated once for a whole list of compounds, not compound by compound.

How the values were obtained:
Format in all cases: in vivo
Diabrotica balteata = Diabrotica balteata (corn root worm) artificial diet test; conditions: 200 ppm (concentration in well 18 ppm), L2 larvae, 5 days, larval mortality, growth regulation
Procedure: Diabrotica Balteata (Corn Root Worm): A 24-well microtiter plate (MTP) with artificial diet was treated with test solutions at an application rate of 200 ppm (concentration in well 18 ppm) by pipetting. After drying, the MTP's were infested with larvae (L2) (6-10 per well). After an incubation period of 5 days, samples were checked for larval mortality, and growth regulation.

Plutella xylostella = Plutella xylostella (diamond back moth) artificial diet test; conditions: 200 ppm (concentration in well 18 ppm), L2 larvae, 6 days, larval mortality, growth regulation
Procedure: Plutella xylostella (Diamond Back Moth): 24-well microtiter plate (MTP) with artificial diet was treated with test solutions at an application rate of 200 ppm (concentration in well 18 ppm) by pipetting. After drying, the MTP's were infested with L2 larvae (7-12 per well). After an incubation period of 6 days, samples were checked for larval mortality and growth regulation.

Spodoptera littoralis = Spodoptera littoralis (Egyptian cotton leafworm) cotton leaf disc spray test; conditions: 200 ppm spray on cotton leaf discs, L1 larvae, 3 DAT; mortality, feeding behavior, growth regulation
Excerpt: Spodoptera littoralis (Egyptian Cotton Leafworm) Cotton leaf discs were placed on agar in a 24-well microtiter plate and sprayed with test solutions at an application rate of 200 ppm. After drying, the leaf discs were infested with 5 L1 larvae. The samples were checked for mortality, feeding behavior, and growth regulation 3 days after treatment (DAT).

Heliothis virescens = Heliothis virescens (tobacco budworm) egg/artificial diet test; conditions: 200 ppm (concentration in well 18 ppm), eggs 0-24 h old on artificial diet, 4 days; egg mortality, larval mortality, growth regulation
Procedure: Heliothis virescens (Tobacco Budworm): Eggs (0-24 h old) were placed in 24-well microtiter plate on artificial diet and treated with test solutions at an application rate of 200 ppm (concentration in well 18 ppm) by pipetting. After an incubation period of 4 days, samples were checked for egg mortality, larval mortality, and growth regulation.

O=C(Nc1ccc(C(F)(F)F)cc1C1CC[N+](O)(Cc2ccc(-c3ccc(F)cc3)cc2)CC1)c1ccnc(Cl)c1.O=C([O-])C(F)(F)F (stereo not shown) [Compound J3]
at least 80%: control of Diabrotica balteata (Diabrotica balteata) | control of Plutella xylostella (Plutella xylostella) | control of Spodoptera littoralis (Spodoptera littoralis) | control of Heliothis virescens (Heliothis virescens)

Cc1cc(C(=O)Nc2cc(Cl)c(Cl)nc2C2CCN(Cc3ccc(-c4ccc(F)cc4)cc3)CC2)cc(Cl)n1 [Compound C20]
at least 80%: control of Diabrotica balteata (Diabrotica balteata) | control of Plutella xylostella (Plutella xylostella) | control of Spodoptera littoralis (Spodoptera littoralis) | control of Heliothis virescens (Heliothis virescens)

O=C(Nc1c(C2CCN(Cc3ccc(-c4ccc(F)cc4)cc3)CC2)cc(F)c(F)c1F)c1ccnc(Cl)c1 [Compound A2]
at least 80%: control of Diabrotica balteata (Diabrotica balteata) | control of Plutella xylostella (Plutella xylostella) | control of Spodoptera littoralis (Spodoptera littoralis) | control of Heliothis virescens (Heliothis virescens)

O=C(Nc1cc(F)c(C(F)(F)F)c(F)c1C1CCN(Cc2ccc(-c3ccc(F)cc3)cc2)CC1)c1ccnc(Cl)c1 [Compound E2]
at least 80%: control of Diabrotica balteata (Diabrotica balteata) | control of Plutella xylostella (Plutella xylostella) | control of Spodoptera littoralis (Spodoptera littoralis) | control of Heliothis virescens (Heliothis virescens)

O=C(Nc1ccc(C(F)(F)F)nc1C1CCN(Cc2ccc(-c3ccc(F)cc3)cc2)CC1)c1cc(F)ncc1Cl [Compound C38]
at least 80%: control of Diabrotica balteata (Diabrotica balteata) | control of Plutella xylostella (Plutella xylostella) | control of Spodoptera littoralis (Spodoptera littoralis) | control of Heliothis virescens (Heliothis virescens)

O=C(Nc1ccc(C(F)(F)F)nc1C1CCN(Cc2ccc(-c3ccc(Br)cc3)cc2)CC1)c1ccnc(Cl)c1 [Compound C44]
at least 80%: control of Diabrotica balteata (Diabrotica balteata) | control of Plutella xylostella (Plutella xylostella) | control of Spodoptera littoralis (Spodoptera littoralis) | control of Heliothis virescens (Heliothis virescens)

O=C(Nc1cc(C(F)(F)F)ccc1C1CC[N+]([O-])(Cc2ccc(-c3ccc(F)cc3)cc2)CC1)c1ccnc(Cl)c1 (stereo not shown) [Compound B2]
at least 80%: control of Diabrotica balteata (Diabrotica balteata) | control of Plutella xylostella (Plutella xylostella) | control of Spodoptera littoralis (Spodoptera littoralis) | control of Heliothis virescens (Heliothis virescens)
